# Test results taken from PubChem BioAssay AID330 (DTP/NCI, 2004).
# The list does not hold the whole screen: it gathers some chemical classes. Other doses and runs of a compound may be missing. T/C is the treated group as % of the vehicle group. Some entries give survivors of the animals treated and no T/C: the source holds a T/C of zero for them, seemingly a mark for toxic or unscored doses. Some survivor counts are full or nearly so, which does not show that the dose was tolerated: the source hardly ever lists a survival T/C far under the control, and the zero likely stands for such cases as well. Counts of survivors are from the toxicity check (mostly the fifth day) where no day follows; animals may have died later. Schedule codes are those of the source, taken here to give the interval after Q, in days (D) or hours (H), and the number of doses after X. Where survival is the endpoint, this PubChem deposit counts one and a half times the control or more as active, and values a quarter to a half above the control carry no call in these data; other NCI protocols may use other cut-offs. Some doses were run more than once; the results are listed from low to high. Some T/C values are marked as having no survivor count here; that says nothing about deaths at the dose. Some T/C values carry the count of animals alive at the toxicity check (mostly the fifth day); where neither a count nor a note follows, no animal had died by that day.
# Test system: P388 leukemia ip, CD2F1 mice, survival T/C
# Test: NCI In Vivo Anticancer Drug Screen. Data for tumor model P388 Leukemia (intraperitoneal) in CD2F1 (CDF1) mice
# Conditions: T/C endpoint: median survival time, higher T/C = longer survival
# [1] = dose: 12.5 mg/kg/injection, schedule: Q01DX009 (ip), vehicle: Klucel (hydroxypropylcellulose) (HPC)
structure (smiles),measurement,setting,value
O=C1C=C(N(CCCl)CCCl)C(=O)c2ccccc21,T/C,"dose: 1.58 mg/kg/injection, schedule: Q01DX009 (ip), vehicle: Klucel (hydroxypropylcellulose) (HPC)",111 % of control
same,T/C,"dose: 3.12 mg/kg/injection, schedule: Q01DX009 (ip), vehicle: Klucel (hydroxypropylcellulose) (HPC)",110 % of control [5 of 6 alive]
same,T/C,"dose: 6.25 mg/kg/injection, schedule: Q01DX009 (ip), vehicle: Klucel (hydroxypropylcellulose) (HPC)",110 % of control
same,T/C,[1],113 % of control
same,survivor count,[1],6 of 6
same,T/C,"dose: 25.0 mg/kg/injection, schedule: Q01DX009 (ip), vehicle: Klucel (hydroxypropylcellulose) (HPC), evaluated on day 30",96 % of control
same,T/C,"dose: 25.0 mg/kg/injection, schedule: Q01DX009 (ip), vehicle: Klucel (hydroxypropylcellulose) (HPC), evaluation day not shown",95 % of control [survivor count not shown]
same,T/C,"dose: 50.0 mg/kg/injection, schedule: Q01DX009 (ip), vehicle: Klucel (hydroxypropylcellulose) (HPC), evaluated on day 30",94 % of control
same,T/C,"dose: 50.0 mg/kg/injection, schedule: Q01DX009 (ip), vehicle: Klucel (hydroxypropylcellulose) (HPC), evaluation day not shown",106 [survivor count not shown] and 132 % of control [survivor count not shown]
same,T/C,"dose: 100.0 mg/kg/injection, schedule: Q01DX009 (ip), vehicle: Klucel (hydroxypropylcellulose) (HPC), evaluated on day 30",97 % of control
same,T/C,"dose: 100.0 mg/kg/injection, schedule: Q01DX009 (ip), vehicle: Klucel (hydroxypropylcellulose) (HPC), evaluation day not shown",112 [survivor count not shown] and 121 % of control [survivor count not shown]
same,T/C,"dose: 200.0 mg/kg/injection, schedule: Q01DX009 (ip), vehicle: Klucel (hydroxypropylcellulose) (HPC), evaluated on day 30",96 % of control
same,T/C,"dose: 200.0 mg/kg/injection, schedule: Q01DX009 (ip), vehicle: Klucel (hydroxypropylcellulose) (HPC), evaluation day not shown",107 [survivor count not shown] and 151 % of control [survivor count not shown]
same,T/C,"dose: 400.0 mg/kg/injection, schedule: Q01DX009 (ip), vehicle: Klucel (hydroxypropylcellulose) (HPC), evaluated on day 30",94 % of control
same,T/C,"dose: 400.0 mg/kg/injection, schedule: Q01DX009 (ip), vehicle: Klucel (hydroxypropylcellulose) (HPC), evaluation day not shown",100 % of control [survivor count not shown]
ClCCN1CCC(C2CCN(CCCl)CC2)CC1,T/C,"dose: 3.12 mg/kg/injection, schedule: Q01DX005 (ip), vehicle: saline",123 % of control
same,T/C,"dose: 6.25 mg/kg/injection, schedule: Q01DX005 (ip), vehicle: saline",132 and 145 % of control
same,T/C,"dose: 12.5 mg/kg/injection, schedule: Q01DX005 (ip), vehicle: saline",159 and 179 % of control
CC(C)N1CCC(N(C(=O)Cc2ccccc2)c2ccc(Cl)cc2)CC1,T/C,"dose: 50.0 mg/kg/injection, schedule: Q01DX009 (ip), vehicle: saline",97 % of control
same,T/C,"dose: 100.0 mg/kg/injection, schedule: Q01DX009 (ip), vehicle: saline",100 % of control
same,survivor count,"dose: 200.0 mg/kg/injection, schedule: Q01DX009 (ip), vehicle: saline",0 of 6
Cc1cccc(C)n1.O=S(=O)(O)Oc1ccc(N(CCCl)CCCl)cc1,T/C,"dose: 50.0 mg/kg/injection, schedule: Q01DX001 (ip), vehicle: Klucel (hydroxypropylcellulose) (HPC)",130 % of control [survivor count not shown]
same,T/C,"dose: 100.0 mg/kg/injection, schedule: Q01DX001 (ip), vehicle: Klucel (hydroxypropylcellulose) (HPC)",148 % of control [survivor count not shown]
same,T/C,"dose: 200.0 mg/kg/injection, schedule: Q01DX001 (ip), vehicle: Klucel (hydroxypropylcellulose) (HPC)",151 % of control [survivor count not shown]
Nc1cc(N)cc(N(CCCl)CCCl)c1,T/C,"dose: 4.4 mg/kg/injection, schedule: Q04DX003 (ip), vehicle: water",185 % of control [survivor count not shown]
same,T/C,"dose: 5.0 mg/kg/injection, schedule: Q04DX003 (ip), vehicle: water",116 [survivor count not shown] and 166 % of control [survivor count not shown]
same,T/C,"dose: 6.6 mg/kg/injection, schedule: Q04DX003 (ip), vehicle: water",208 % of control [survivor count not shown]
same,T/C,"dose: 10.0 mg/kg/injection, schedule: Q04DX003 (ip), vehicle: water","98 [survivor count not shown], 172 [survivor count not shown], 215 % of control [survivor count not shown]"
same,T/C,"dose: 20.0 mg/kg/injection, schedule: Q04DX003 (ip), vehicle: water",116 [survivor count not shown] and 127 % of control [survivor count not shown]
same,T/C,"dose: 40.0 mg/kg/injection, schedule: Q04DX003 (ip), vehicle: water",91 % of control [survivor count not shown]
Nc1ncnc2c1ncn2CCN(CCCl)CCCl,T/C,"dose: 0.44 mg/kg/injection, schedule: Q01DX009 (ip), vehicle: saline",144 % of control [survivor count not shown]
same,T/C,"dose: 0.66 mg/kg/injection, schedule: Q01DX009 (ip), vehicle: saline",153 % of control [survivor count not shown]
same,T/C,"dose: 1.0 mg/kg/injection, schedule: Q01DX009 (ip), vehicle: saline",185 % of control [survivor count not shown]
same,T/C,"dose: 1.5 mg/kg/injection, schedule: Q01DX009 (ip), vehicle: saline",201 % of control [survivor count not shown]
same,T/C,"dose: 2.2 mg/kg/injection, schedule: Q04DX003 (ip), vehicle: saline",135 % of control [survivor count not shown]
same,T/C,"dose: 3.3 mg/kg/injection, schedule: Q04DX003 (ip), vehicle: saline",150 % of control [survivor count not shown]
same,T/C,"dose: 5.0 mg/kg/injection, schedule: Q04DX003 (ip), vehicle: saline",155 % of control [survivor count not shown]
same,T/C,"dose: 6.25 mg/kg/injection, schedule: Q04DX003 (ip), vehicle: saline",204 % of control [survivor count not shown]
same,T/C,"dose: 7.5 mg/kg/injection, schedule: Q04DX003 (ip), vehicle: saline",185 % of control [survivor count not shown]
same,T/C,"dose: 12.5 mg/kg/injection, schedule: Q04DX003 (ip), vehicle: saline",104 % of control [survivor count not shown]
COc1cccc(N(CCCl)CCCl)c1OC,T/C,"dose: 1.5 mg/kg/injection, schedule: Q04DX003 (ip), vehicle: saline with Tween-80",109 % of control [survivor count not shown]
same,T/C,"dose: 3.0 mg/kg/injection, schedule: Q04DX003 (ip), vehicle: saline with Tween-80",109 % of control [survivor count not shown]
same,T/C,"dose: 6.0 mg/kg/injection, schedule: Q04DX003 (ip), vehicle: saline with Tween-80",118 % of control [survivor count not shown]
same,T/C,"dose: 6.25 mg/kg/injection, schedule: Q04DX003 (ip), vehicle: saline with Tween-80",128 % of control [survivor count not shown]
same,T/C,"dose: 12.5 mg/kg/injection, schedule: Q04DX003 (ip), vehicle: saline with Tween-80",127 [survivor count not shown] and 138 % of control [survivor count not shown]
same,T/C,"dose: 18.75 mg/kg/injection, schedule: Q01DX009 (ip), vehicle: saline with Tween-80",160 % of control [survivor count not shown]
same,T/C,"dose: 25.0 mg/kg/injection, schedule: Q04DX003 (ip), vehicle: saline with Tween-80",136 % of control [survivor count not shown]
same,T/C,"dose: 33.0 mg/kg/injection, schedule: Q04DX003 (ip), vehicle: saline with Tween-80",122 % of control [survivor count not shown]
same,T/C,"dose: 37.5 mg/kg/injection, schedule: Q01DX009 (ip), vehicle: saline with Tween-80",160 % of control [survivor count not shown]
same,T/C,"dose: 50.0 mg/kg/injection, schedule: Q04DX003 (ip), vehicle: saline with Tween-80","136 [survivor count not shown], 157 [survivor count not shown], 159 % of control [survivor count not shown]"
same,T/C,"dose: 75.0 mg/kg/injection, schedule: Q01DX009 (ip), vehicle: saline with Tween-80",210 % of control [survivor count not shown]
same,T/C,"dose: 75.0 mg/kg/injection, schedule: Q04DX003 (ip), vehicle: saline with Tween-80",181 % of control [survivor count not shown]
same,T/C,"dose: 100.0 mg/kg/injection, schedule: Q04DX003 (ip), vehicle: saline with Tween-80",143 [survivor count not shown] and 176 % of control [survivor count not shown]
same,T/C,"dose: 200.0 mg/kg/injection, schedule: Q04DX003 (ip), vehicle: saline with Tween-80",160 % of control [survivor count not shown]
Cc1ccc(N(CCI)CCI)cc1,T/C,[1],161 % of control [survivor count not shown]
same,T/C,"dose: 25.0 mg/kg/injection, schedule: Q01DX009 (ip), vehicle: Klucel (hydroxypropylcellulose) (HPC)",174 % of control [survivor count not shown]
same,T/C,"dose: 50.0 mg/kg/injection, schedule: Q01DX009 (ip), vehicle: Klucel (hydroxypropylcellulose) (HPC)",100 [survivor count not shown] and 166 % of control [survivor count not shown]
same,T/C,"dose: 100.0 mg/kg/injection, schedule: Q01DX009 (ip), vehicle: Klucel (hydroxypropylcellulose) (HPC)",108 % of control [survivor count not shown]
